{
  "sequences": {"note": "Protein sequences, listed by entry. Tags and fused reporters are not part of them.", "UniProt Q8N8Y2": "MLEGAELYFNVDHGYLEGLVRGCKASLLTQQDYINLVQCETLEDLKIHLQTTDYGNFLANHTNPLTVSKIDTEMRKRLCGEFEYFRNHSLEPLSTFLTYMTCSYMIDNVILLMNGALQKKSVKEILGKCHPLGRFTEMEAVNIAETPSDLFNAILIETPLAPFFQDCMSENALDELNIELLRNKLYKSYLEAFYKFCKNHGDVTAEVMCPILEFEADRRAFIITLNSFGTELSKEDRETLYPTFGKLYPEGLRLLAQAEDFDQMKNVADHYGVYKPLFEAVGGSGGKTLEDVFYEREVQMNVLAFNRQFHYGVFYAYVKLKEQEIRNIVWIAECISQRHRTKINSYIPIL", "UniProt P51149": "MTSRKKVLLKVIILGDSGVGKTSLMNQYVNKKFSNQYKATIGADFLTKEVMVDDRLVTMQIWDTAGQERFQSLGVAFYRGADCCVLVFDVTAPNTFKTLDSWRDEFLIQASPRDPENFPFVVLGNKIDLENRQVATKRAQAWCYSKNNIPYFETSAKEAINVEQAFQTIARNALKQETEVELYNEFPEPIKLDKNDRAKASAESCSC"},
  "source": "paper PMC11849937",
  "key": {"[1]": {"molecular_target": "FLAG-tagged ATP6V0D2 (in 293T cells) (UniProt Q8N8Y2)", "experiment": "co-IP; 293T cells cotransfected with FLAG-tagged ATP6V0D2, His-tagged RAB7 and His-tagged VPS41"}, "[2]": {"molecular_target": "Flag-tagged ATP6V0D2 (ATPase H+ transporting V0 subunit d2) (UniProt Q8N8Y2)", "experiment": "co-IP; 786O cells stably expressing flag-ATP6V0D2 immunoprecipitated by beads; blots for endogenous VPS41, VPS39 and RAB7"}},
  "note": "No constants are given. Whether binding was seen depends on the method and setting. Binding seen in cells or lysates may run through a third protein. Some entries that bind do so weakly or less than the wild type.",
  "data": [
    {"substance": "His-tagged RAB7 (in 293T cells) (from UniProt P51149 1-207)", "values": [
      {"measurement": "binding", "setting": "[1]", "value": "binds"}
    ]},
    {"substance": "RAB7 (endogenous) (from UniProt P51149 1-207)", "values": [
      {"measurement": "binding", "setting": "[2]", "value": "binds"}
    ]}
  ]
}
